Source: PMC4606566
These are yes or no findings as the source states them, for the method shown. Binding seen in cells or lysates may run through a third protein. Some results given as binding are weak or reduced against the parent protein; the word gives no strength.

Amino acid sequences for entries named in this document (tags omitted).
UniProt Q2MJT0: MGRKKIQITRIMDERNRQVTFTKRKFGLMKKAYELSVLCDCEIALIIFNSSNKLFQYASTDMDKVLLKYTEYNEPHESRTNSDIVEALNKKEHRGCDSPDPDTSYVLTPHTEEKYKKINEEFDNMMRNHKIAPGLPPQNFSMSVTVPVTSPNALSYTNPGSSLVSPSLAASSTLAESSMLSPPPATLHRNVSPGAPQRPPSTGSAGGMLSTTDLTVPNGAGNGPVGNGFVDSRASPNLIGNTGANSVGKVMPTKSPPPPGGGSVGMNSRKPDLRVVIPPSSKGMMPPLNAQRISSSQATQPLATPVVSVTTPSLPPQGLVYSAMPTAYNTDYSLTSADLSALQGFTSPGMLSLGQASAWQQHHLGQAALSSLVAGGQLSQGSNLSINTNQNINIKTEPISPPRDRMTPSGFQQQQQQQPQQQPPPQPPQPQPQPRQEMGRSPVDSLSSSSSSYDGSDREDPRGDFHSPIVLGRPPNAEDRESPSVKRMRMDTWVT

Legend:
[1] = target: T1, PIMT (PRIP Interacting protein with Methyl Transferase domain) (rat (endogenous in L6)) (UniProt P85107); assay: co-IP; TNF-α treated L6 myoblasts (2 ng/ml); 4 mg lysate (120 mM NaCl, 1% Triton X-100, 20 mM Tris-HCl pH 7.5, 10% glycerol, 2 mM EDTA) immunoprecipitated with anti-PIMT, blotted for Med-1, PGC-1α and MEF2A
T1 sequence: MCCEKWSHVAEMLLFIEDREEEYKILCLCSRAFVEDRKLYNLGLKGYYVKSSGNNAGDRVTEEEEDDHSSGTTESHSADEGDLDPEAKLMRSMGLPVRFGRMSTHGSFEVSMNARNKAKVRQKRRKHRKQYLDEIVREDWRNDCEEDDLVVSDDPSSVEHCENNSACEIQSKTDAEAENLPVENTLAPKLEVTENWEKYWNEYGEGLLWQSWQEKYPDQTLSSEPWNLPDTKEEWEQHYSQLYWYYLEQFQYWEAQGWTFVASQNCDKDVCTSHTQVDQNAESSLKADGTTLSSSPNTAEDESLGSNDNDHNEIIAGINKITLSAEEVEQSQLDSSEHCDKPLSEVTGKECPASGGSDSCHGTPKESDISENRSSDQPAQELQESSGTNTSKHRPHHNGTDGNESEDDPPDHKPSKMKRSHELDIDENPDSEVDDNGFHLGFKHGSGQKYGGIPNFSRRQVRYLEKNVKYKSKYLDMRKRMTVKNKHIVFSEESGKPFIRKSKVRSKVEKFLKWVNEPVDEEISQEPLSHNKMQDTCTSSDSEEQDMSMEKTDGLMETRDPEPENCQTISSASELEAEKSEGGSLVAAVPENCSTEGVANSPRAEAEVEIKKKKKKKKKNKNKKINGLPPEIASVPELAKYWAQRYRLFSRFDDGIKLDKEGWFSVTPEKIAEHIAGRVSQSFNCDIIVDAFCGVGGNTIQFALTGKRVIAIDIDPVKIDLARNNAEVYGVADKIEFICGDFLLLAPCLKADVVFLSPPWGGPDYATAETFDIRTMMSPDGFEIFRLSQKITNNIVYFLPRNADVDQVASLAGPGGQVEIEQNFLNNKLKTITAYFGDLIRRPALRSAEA

[2] = target: T1, PIMT (PRIP Interacting protein with Methyl Transferase domain) (rat (endogenous in L6)); assay: co-IP; un-stimulated L6 myoblasts; 4 mg lysate (120 mM NaCl, 1% Triton X-100, 20 mM Tris-HCl pH 7.5, 10% glycerol, 2 mM EDTA) immunoprecipitated with anti-PIMT, blotted for Med-1, PGC-1α and MEF2A

MEF2A (from UniProt Q2MJT0 1-495)
binding [1]: no binding (condition: in TNF-α exposed L6 myoblasts) | binding [2]: binds
